Data: patent publication US20250092146A1, “ANTI-CCR8 ANTIBODIES, CONJUGATES, AND USES THEREOF” (Abilita Bio, Inc., priority 2023, published 2025)
Where a chain is given by its changes, count along the chain named. Results are given in words; binding and its absence hold for the method and conditions named. Some entries that bind do so weakly or less than the wild type.

Amino acid sequences for entries named in this document (tags omitted). A change or cut given only in a name is not applied to a line headed by its entry.
UniProt P51685: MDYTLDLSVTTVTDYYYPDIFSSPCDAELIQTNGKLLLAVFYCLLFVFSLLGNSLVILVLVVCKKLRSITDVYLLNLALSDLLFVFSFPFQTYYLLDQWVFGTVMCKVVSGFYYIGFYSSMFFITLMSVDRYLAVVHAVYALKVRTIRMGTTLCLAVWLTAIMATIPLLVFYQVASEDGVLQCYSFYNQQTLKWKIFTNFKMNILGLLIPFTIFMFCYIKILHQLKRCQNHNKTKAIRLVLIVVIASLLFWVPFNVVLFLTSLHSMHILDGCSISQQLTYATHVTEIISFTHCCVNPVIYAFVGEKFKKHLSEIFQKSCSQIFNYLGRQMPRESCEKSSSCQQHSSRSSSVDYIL

B1: VHH-1 (VHH, not shown: small tags and cut ends)
VHH: QVQLQESGGGLVQAGGSLRLSCVASGSTSSIRRIGWYRQAPGKQRELVARFSSGGGTNYADFVKGRFTISGDNAKNTMYLQMNSLKPEDTAVYYCSARRLLGTSRVDYWGQGTQVTVSS
B2: VHH-3 (VHH, not shown: small tags and cut ends)
VHH: B1 VHH with S96G

Biological target: human CCR8 (hCCR8) (human) (UniProt P51685)
Assay: flow cytometry on HEK293-hCCR8 cells, anti-VHH detection

Binder	binding
B1	binds
B2	binds
